These are yes or no findings as the source states them, for the method shown. Where a sequence is shown, tags or fusion partners need not be part of it.

These results are taken from PMC11922746, “SPO11 dimers are sufficient to catalyse DNA double-strand breaks in vitro” (Nature, 2024).

Experiment [1] deals with T1, MBP-tagged Mus musculus SPO11 (Mus musculus, UniProt Q9WTK8 1-396).
T1 construct: SPO11, Mus musculus; expected molecular mass of MBP–SPO11 87.4 kDa; active-site tyrosines Y137 and Y138; also called MBP–SPO11; mouse SPO11; source: baculovirus-infected Sf9 insect cells, purified (amylose, Superdex 200, cation exchange); for the complex co-expressed with TOP6BL and purified (Ni-NTA, amylose, Superdex 200); not shown: MBP, N-terminal, kept
T1 sequence (looked up): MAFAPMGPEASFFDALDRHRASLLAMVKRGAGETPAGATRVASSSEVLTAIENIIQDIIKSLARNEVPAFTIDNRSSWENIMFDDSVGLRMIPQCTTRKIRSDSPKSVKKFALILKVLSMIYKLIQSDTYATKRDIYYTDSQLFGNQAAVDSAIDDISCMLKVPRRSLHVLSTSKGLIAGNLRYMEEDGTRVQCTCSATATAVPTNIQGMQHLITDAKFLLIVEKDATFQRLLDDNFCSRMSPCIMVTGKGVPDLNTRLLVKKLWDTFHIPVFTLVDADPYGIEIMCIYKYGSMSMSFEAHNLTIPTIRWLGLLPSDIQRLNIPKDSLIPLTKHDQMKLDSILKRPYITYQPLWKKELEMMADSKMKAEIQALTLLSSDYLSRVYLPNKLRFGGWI
Kind of experiment: condition: 4 µM loaded; dissociation constant probably higher than 1–5 µM; SEC-MALS; 4 µM MBP–SPO11 following amylose affinity purification; Superdex 200 increase 10/300 GL; 25 mM HEPES-NaOH pH 7.5, 500 mM NaCl, 10% glycerol, 5 mM EDTA, 2 mM DTT; dimer to monomers; both purified.

For experiment [2], the target named is SPO11–TOP6BL complex (MBP–SPO11 with His–Flag-tagged TOP6BL) (Mus musculus) (UniProt Q9WTK8+J3QMY9). Kind of experiment: SEC-MALS; co-expressed and co-purified MBP–SPO11 and His–Flag TOP6BL complex (Ni-NTA, amylose, Superdex 200); Superdex 200 increase 10/300 GL; 25 mM HEPES-NaOH pH 7.5, 500 mM NaCl, 10% glycerol, 5 mM EDTA, 2 mM DTT; both purified. For orientation: SEC sorts molecules by how far they enter the pores of the column.

B1: MBP-tagged Mus musculus SPO11 (enzyme, UniProt Q9WTK8 1-396)
chain: T1 sequence (looked up)
With B1, in experiment [1], the binding result is “no binding”.

B2: SPO11–TOP6BL complex (MBP–SPO11 with His–Flag-tagged TOP6BL) (complex, UniProt Q9WTK8 1-396; J3QMY9 1-579)
chain 1: T1 sequence (looked up)
chain 2: MERTALAVCEILRYLIIHWKCEAGTAKGTLLDGQLVISIEALRSKHLPDSLHCIITIASTRSVYGGLNFKKFLQEIQPALPRLSAKLALASEEGGRSQDASGIAPCQVTFEVDENSQSLMTDCLVIKHFLRKIIIVHHKLKFSFSVAVNGTLSAETFGAENEPTLRLDNGVTLVVGFQRYVSKPKLNWSEAHCSRIHPVLGHPAPLFIPDAKADTGLLGELTLTPAAALCPSPKGFSSQLCRISSVSIFLYGPLGLPLLSSDQDQPSTAVFRDTSYFIDWKKYNLFMVPNLDLNLDTQSVLPDVNYKAESPEGNQSQNMNAQGPALLLFLFVDFQSDVPVQQAKIWGLHTLLTAHLSAILSESRSTVQQSIQSAVDQVWQLYHHDAKTQQRLQASLSVAVNSIMSVLTGSTRSSFRKTCLQALEAADTQEFGVKLHRIFYDITQHQFLKHCSCDTEQHLTPEKNISAQNTKDQHKNIAQEFPEESIGQAENKRPKRGSPNHGREESRVLGSARDRSPPKSATRDRELTEVSLTARGSQTQAAHGRAQAAEAASPAGGLEDLWLQEVSNLSEWLNPGHRS
For B2, the binding entry in experiment [2] is reported as “no binding”.
